# In the supplement of paper PMC10849652:
# Sequences of proteins named here, by UniProt entry; tags and fusion partners are left off. A change or cut given only in a name is not applied to a line headed by its entry.
# UniProt Q96L73: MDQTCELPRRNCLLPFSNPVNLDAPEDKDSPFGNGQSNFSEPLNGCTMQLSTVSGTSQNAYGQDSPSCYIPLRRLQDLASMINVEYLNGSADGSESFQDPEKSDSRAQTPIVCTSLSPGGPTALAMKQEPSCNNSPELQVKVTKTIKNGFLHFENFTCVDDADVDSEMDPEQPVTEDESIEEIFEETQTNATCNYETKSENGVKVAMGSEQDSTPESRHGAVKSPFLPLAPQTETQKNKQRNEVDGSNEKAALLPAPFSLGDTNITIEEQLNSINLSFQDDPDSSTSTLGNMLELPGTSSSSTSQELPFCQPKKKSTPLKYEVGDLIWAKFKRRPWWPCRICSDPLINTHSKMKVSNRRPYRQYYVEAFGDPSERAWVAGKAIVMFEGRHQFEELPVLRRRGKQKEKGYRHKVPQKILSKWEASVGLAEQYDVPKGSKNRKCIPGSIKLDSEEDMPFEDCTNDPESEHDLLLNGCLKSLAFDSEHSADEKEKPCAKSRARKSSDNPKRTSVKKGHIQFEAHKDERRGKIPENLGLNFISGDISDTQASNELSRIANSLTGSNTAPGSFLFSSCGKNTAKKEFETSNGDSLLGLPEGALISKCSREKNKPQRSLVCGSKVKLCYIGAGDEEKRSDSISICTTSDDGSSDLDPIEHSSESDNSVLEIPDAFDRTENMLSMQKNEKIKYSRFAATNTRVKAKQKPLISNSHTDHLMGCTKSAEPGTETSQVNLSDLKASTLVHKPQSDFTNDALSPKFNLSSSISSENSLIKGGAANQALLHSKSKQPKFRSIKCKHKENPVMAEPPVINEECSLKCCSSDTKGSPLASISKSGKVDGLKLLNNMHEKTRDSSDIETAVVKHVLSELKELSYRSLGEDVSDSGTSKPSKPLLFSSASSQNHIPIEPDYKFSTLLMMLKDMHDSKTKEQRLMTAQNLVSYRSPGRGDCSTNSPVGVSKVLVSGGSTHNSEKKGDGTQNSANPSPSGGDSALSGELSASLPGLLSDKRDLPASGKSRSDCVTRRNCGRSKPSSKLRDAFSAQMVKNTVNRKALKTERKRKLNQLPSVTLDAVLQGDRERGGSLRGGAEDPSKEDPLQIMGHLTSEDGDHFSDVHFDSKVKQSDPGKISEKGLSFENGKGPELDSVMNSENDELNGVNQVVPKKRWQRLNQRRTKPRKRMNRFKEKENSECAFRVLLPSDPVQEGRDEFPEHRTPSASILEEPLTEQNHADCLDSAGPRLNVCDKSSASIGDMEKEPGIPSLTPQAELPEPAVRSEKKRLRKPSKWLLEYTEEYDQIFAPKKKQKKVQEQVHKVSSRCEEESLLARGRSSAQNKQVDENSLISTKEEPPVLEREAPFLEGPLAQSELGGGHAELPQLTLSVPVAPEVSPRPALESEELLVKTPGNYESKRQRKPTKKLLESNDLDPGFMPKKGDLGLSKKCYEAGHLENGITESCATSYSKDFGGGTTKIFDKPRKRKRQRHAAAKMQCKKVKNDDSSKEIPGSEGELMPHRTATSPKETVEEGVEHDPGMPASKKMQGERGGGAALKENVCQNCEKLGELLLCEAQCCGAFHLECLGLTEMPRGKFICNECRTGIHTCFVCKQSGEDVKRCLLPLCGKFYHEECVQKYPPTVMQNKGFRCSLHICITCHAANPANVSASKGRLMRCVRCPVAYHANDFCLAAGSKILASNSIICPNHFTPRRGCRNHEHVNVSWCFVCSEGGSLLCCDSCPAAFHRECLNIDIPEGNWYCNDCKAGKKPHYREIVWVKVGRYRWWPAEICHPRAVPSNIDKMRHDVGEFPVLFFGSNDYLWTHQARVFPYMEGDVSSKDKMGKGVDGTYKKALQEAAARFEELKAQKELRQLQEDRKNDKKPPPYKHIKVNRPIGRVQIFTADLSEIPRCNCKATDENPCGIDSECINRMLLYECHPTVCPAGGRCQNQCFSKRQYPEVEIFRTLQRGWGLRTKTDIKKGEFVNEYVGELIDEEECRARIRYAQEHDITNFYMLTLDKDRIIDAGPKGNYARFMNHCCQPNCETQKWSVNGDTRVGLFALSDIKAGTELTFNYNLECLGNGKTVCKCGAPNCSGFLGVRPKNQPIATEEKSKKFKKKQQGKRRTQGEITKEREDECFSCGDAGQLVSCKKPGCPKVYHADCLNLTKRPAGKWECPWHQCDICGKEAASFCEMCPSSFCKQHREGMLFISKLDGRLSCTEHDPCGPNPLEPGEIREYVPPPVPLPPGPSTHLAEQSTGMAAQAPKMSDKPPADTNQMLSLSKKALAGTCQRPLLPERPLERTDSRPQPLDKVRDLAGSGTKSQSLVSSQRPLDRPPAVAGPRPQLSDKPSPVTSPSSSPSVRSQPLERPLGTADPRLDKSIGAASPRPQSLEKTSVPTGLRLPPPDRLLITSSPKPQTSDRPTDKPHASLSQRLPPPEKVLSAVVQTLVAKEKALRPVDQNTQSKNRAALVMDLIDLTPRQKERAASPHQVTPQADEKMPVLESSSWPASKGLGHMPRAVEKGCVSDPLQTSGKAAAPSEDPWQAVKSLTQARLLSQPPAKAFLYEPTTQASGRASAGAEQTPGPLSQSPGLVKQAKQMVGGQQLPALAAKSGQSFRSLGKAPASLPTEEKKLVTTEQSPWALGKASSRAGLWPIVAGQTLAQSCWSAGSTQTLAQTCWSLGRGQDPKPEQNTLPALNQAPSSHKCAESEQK
# UniProt Q96IY1: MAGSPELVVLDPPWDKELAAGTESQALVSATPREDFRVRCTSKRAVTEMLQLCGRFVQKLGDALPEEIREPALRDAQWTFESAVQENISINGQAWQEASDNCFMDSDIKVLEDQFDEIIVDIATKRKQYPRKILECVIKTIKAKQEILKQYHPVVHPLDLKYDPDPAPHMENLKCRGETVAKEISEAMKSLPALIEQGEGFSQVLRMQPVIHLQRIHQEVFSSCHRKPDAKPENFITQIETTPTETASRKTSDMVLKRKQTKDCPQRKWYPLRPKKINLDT
# UniProt Q9NPE2: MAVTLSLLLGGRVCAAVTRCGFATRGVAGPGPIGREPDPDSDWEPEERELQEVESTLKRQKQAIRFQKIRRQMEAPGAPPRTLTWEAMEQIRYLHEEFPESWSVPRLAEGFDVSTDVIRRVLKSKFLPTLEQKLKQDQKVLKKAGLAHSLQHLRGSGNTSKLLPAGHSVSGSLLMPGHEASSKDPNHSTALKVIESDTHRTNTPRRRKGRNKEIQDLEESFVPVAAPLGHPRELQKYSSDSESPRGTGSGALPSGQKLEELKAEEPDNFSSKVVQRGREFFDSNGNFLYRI
# UniProt P61916: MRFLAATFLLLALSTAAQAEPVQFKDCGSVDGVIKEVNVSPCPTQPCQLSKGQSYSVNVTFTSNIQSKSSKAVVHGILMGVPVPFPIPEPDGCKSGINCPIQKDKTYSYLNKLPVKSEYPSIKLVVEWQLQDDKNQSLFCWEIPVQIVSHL
# UniProt P48681: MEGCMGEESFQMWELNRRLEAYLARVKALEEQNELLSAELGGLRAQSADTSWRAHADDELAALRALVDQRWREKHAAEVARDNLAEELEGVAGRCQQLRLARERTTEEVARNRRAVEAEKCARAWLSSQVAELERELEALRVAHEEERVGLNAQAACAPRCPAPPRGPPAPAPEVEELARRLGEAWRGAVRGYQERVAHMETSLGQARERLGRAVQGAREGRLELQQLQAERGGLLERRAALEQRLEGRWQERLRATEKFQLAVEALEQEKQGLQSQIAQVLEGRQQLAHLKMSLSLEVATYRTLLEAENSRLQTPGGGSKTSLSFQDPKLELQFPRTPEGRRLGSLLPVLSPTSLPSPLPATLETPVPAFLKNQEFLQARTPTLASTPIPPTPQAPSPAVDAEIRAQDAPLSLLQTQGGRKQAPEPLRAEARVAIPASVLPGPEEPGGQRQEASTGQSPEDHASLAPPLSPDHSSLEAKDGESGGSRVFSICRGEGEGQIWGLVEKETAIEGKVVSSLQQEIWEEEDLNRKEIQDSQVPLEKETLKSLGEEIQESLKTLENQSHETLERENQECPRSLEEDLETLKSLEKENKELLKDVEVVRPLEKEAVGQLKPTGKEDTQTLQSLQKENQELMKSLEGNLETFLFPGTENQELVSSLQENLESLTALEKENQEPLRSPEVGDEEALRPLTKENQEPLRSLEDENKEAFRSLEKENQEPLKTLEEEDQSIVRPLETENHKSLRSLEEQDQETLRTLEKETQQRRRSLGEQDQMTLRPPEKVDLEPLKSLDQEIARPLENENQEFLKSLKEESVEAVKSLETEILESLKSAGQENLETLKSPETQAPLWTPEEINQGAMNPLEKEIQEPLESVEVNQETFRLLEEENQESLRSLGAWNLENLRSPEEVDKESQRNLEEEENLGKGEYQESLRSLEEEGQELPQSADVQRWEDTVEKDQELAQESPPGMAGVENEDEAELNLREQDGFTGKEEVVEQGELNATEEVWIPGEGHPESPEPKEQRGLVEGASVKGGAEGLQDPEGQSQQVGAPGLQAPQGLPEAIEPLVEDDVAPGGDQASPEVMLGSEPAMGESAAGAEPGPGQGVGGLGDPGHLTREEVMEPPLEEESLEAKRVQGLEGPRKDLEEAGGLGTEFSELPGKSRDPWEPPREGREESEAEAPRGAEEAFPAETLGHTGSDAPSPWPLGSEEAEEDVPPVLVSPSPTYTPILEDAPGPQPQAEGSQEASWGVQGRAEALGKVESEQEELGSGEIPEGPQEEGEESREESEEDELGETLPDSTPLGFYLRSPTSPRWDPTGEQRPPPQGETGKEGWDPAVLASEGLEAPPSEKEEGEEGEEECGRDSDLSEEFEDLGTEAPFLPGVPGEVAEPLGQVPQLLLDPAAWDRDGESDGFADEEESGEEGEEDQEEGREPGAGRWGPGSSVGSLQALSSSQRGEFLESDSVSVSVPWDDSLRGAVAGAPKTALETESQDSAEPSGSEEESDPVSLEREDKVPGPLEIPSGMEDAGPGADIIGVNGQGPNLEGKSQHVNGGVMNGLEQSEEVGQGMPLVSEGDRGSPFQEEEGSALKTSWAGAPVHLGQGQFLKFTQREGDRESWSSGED
# UniProt P16083: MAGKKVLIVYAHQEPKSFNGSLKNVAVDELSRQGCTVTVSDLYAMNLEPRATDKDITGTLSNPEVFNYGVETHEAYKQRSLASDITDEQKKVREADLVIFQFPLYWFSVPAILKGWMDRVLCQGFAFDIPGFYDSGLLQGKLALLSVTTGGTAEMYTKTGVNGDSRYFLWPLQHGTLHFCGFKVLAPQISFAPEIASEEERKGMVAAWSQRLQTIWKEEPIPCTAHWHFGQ
# UniProt O00746: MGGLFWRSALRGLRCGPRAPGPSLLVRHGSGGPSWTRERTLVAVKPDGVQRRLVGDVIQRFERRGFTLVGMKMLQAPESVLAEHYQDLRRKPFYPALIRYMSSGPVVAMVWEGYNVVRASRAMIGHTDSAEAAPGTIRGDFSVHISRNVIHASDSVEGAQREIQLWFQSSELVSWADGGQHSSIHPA
# UniProt Q9NVX2: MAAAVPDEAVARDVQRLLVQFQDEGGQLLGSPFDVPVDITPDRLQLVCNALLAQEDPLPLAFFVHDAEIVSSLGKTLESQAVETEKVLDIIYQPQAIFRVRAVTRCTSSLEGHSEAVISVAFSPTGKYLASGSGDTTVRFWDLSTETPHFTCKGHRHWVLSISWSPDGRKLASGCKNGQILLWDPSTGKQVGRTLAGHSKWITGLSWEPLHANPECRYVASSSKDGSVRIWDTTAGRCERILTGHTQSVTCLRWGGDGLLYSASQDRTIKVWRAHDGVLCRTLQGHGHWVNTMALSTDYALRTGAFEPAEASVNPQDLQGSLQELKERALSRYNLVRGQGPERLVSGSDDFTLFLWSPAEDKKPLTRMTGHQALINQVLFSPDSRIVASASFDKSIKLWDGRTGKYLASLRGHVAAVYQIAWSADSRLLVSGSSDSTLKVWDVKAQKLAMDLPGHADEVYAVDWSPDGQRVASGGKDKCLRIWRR
# UniProt Q9Y639: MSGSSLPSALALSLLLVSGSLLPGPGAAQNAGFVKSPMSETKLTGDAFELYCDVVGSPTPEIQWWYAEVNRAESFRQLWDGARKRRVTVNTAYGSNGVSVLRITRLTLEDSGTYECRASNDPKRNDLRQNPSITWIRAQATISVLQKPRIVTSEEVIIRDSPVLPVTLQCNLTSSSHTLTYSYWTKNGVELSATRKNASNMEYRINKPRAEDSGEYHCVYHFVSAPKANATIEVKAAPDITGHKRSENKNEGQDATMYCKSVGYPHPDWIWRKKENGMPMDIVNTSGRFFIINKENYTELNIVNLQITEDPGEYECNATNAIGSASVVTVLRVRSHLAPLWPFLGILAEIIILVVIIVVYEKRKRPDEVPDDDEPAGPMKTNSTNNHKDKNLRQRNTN
# UniProt Q9UFN0: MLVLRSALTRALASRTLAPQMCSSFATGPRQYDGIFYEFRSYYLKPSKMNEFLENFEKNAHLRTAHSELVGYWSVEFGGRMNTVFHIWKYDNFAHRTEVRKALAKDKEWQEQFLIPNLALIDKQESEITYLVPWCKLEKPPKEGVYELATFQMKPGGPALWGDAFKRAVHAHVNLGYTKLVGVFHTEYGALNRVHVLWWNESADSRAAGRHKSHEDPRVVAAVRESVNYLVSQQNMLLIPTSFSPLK
# Some of the results follow.
# Compound: c1cn2cc(-c3ccc4cn[nH]c4c3)nc(Nc3ccc(N4CCOCC4)cc3)c2n1 [entospletinib]
# Assay: log2 fold change, soluble protein after heating vs DMSO (PISA); higher = thermal stabilisation; K562 cells, 10 uM, 30 min; active = over 0.2 and 3.5 SD of the protein, either way, in both replicates (recomputed)
# Outline: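 K562 cells at 2×10^6 cells/mL were treated for 30 min with 10 μM compound, and aliquots were heated for 3 min over 48°C-58°C before pooling. Extraction used PBS with 0.5% NP-40 at 4°C, and soluble protein was the supernatant after 21,000xg for 90 min, measured by TMTpro 16plex LC-MS/MS with channel sums equalised. Thermal stability values, relative to control samples and from duplicates, are log2 fold changes.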
row,Target,log2 fold change
1,NSMAF (UniProt Q92636),inactive: 0.017
2,NOA1 (UniProt Q8NC60),inactive: -0.093
3,NSD1 (UniProt Q96L73),inactive: -0.056
4,NFKBIA (UniProt P25963),inactive: 0.015
5,NFKBIB (UniProt Q15653),inactive: -0.009
6,NSL1 (UniProt Q96IY1),inactive: 0.064
7,NGRN (UniProt Q9NPE2),inactive: 0
8,NFIC (UniProt P08651),inactive: 0.058
9,NFATC4 isoform 2 (UniProt Q14934),inactive: -0.117
10,NHLRC3 (UniProt Q5JS37),inactive: 0.037
11,NPC2 (UniProt P61916),inactive: -0.123
12,NES (UniProt P48681),inactive: 0.076
13,NEO1 (UniProt Q92859),inactive: 0.555
14,NQO2 (UniProt P16083),inactive: 0.006
15,NSF (UniProt P46459),inactive: 0.014
16,NOSTRIN isoform 4 (UniProt Q8IVI9),inactive: -0.061
17,NME4 (UniProt O00746),inactive: -0.105
18,NOC2L (UniProt Q9Y3T9),inactive: 0
19,NLE1 (UniProt Q9NVX2),inactive: -0.036
20,NPTN (UniProt Q9Y639),inactive: 0.012
21,NFAT5 isoform 5 (UniProt O94916),inactive: -0.012
22,NSFL1C isoform 5 (UniProt Q9UNZ2),inactive: -0.012
23,NIPSNAP3A (UniProt Q9UFN0),inactive: -0.051

# Rewritten as tab-separated lines: part of the list above.
row	Target	log2 fold change
18	NOC2L (UniProt Q9Y3T9)	inactive: 0
19	NLE1 (UniProt Q9NVX2)	inactive: -0.036
20	NPTN (UniProt Q9Y639)	inactive: 0.012
21	NFAT5 isoform 5 (UniProt O94916)	inactive: -0.012
22	NSFL1C isoform 5 (UniProt Q9UNZ2)	inactive: -0.012
